Test results published in PMC9102551.
These are yes or no findings as the source states them, for the method shown. In cells and extracts the contact can be indirect. Some binding calls cover weakened binding; strength is not graded here.

Sequences of proteins named here, by UniProt entry; tags and fusion partners are left off. A change or cut given only in a name is not applied to a line headed by its entry. A line that says so, or that is headed by a name, gives the form on record, which may keep a tag or linker.
UniProt Q7Z2W7: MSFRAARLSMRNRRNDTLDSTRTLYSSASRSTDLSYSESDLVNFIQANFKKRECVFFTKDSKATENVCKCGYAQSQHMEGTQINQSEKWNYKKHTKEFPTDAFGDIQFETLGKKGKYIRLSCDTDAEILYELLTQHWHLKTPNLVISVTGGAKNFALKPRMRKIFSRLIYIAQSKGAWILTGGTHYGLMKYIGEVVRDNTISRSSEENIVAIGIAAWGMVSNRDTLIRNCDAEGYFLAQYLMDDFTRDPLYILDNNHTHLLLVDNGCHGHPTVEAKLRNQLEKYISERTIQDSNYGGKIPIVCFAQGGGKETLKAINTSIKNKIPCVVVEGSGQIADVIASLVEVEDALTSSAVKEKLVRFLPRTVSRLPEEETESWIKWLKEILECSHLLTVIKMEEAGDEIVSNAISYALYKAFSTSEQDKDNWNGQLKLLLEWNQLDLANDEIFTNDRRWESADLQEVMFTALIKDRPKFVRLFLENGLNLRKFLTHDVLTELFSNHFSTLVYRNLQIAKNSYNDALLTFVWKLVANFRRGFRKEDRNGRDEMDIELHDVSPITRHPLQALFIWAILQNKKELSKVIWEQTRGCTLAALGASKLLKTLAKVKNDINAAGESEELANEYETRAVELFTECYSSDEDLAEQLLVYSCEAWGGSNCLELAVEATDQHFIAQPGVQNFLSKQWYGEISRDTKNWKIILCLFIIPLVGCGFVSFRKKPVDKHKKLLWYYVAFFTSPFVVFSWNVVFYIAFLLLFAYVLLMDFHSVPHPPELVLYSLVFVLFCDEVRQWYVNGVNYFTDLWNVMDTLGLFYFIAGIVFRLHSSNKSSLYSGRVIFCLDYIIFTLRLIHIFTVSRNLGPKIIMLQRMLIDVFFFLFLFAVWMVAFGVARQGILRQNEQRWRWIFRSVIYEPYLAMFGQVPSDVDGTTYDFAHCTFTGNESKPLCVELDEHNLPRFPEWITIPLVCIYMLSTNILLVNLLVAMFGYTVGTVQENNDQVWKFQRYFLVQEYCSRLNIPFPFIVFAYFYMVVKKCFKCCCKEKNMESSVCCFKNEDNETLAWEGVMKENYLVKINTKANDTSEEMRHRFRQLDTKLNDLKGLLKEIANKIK
GFP-Rap1A S17N (GFP-Rap1 N17) (P62834, form named): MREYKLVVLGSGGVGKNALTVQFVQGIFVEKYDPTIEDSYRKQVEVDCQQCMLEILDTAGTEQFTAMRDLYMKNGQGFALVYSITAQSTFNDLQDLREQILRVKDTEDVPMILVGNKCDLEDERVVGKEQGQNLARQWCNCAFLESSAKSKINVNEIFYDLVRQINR

Assays:
[1] = target: His-tagged human TRPM8 E207A Y240A (human) (UniProt Q7Z2W7); assay: proximity ligation; Duolink PLA in fixed PC3 cells overexpressing TRPM8 (wt or E207A Y240A) and Rap1 N17; anti-TRPM8 and anti-GFP primary antibodies; confocal imaging
[2] = target: His-tagged human TRPM8 wild type (His-tagged-hTRPM8pcDNA4) (human) (UniProt Q7Z2W7); assay: as above
[3] = target: His-tagged human TRPM8 E207A Y240A (human) (UniProt Q7Z2W7); assay: co-IP; lysates (1% CHAPS) of PC3M8 or PC3 cells transfected with TRPM8 and GFP-Rap1; His-tagged TRPM8 captured on His-Tag Dynabeads overnight at 4 °C in IP buffer (150 mM NaCl, 20 mM NaH2PO4, pH 8); blot with anti-GFP
[4] = target: His-tagged human TRPM8 wild type (His-tagged-hTRPM8pcDNA4) (human) (UniProt Q7Z2W7); assay: as above

Measured: binding

GFP-Rap1A S17N (GFP-Rap1 N17) (from UniProt P62834 1-167)
binds: all assays above
